Results are given in words; binding and its absence hold for the method and conditions named. In cells and extracts the contact can be indirect. Some binding calls cover weakened binding; strength is not graded here.

Protein sequences, listed by entry. Tags and fused reporters are not part of them.
UniProt P03427: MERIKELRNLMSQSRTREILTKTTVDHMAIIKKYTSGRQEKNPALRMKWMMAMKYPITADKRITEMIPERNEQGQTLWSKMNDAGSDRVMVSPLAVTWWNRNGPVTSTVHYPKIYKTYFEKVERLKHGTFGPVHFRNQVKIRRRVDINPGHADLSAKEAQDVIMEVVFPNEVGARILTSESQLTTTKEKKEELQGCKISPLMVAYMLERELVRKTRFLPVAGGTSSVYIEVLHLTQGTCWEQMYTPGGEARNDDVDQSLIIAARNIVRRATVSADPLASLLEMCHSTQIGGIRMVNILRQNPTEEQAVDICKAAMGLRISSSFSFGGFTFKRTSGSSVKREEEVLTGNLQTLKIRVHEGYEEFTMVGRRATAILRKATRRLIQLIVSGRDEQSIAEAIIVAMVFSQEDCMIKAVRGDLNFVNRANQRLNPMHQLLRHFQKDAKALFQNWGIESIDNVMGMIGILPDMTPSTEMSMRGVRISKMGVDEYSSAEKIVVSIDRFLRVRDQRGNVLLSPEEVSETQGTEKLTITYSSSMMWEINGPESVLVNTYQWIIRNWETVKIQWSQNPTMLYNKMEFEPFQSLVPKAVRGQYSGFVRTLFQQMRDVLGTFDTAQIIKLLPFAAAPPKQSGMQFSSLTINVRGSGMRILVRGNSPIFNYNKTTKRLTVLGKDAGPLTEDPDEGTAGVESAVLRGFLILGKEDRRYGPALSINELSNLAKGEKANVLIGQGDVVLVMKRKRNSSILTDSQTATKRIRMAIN
UniProt P15682: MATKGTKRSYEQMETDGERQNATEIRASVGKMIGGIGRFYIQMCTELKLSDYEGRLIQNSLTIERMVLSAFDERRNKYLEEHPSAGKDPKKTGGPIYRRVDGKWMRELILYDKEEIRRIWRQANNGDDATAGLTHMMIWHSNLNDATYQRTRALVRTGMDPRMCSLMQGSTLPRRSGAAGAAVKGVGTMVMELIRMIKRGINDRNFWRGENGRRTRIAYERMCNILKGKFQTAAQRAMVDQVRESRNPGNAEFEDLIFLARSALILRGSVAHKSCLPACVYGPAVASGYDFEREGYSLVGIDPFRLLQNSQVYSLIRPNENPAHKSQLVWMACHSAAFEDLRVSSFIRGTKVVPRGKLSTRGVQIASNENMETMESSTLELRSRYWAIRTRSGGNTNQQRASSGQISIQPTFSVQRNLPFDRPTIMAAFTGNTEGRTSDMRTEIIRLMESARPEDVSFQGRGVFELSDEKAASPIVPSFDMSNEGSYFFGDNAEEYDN

For the assay, the target named is PB2 carrying a strep-tag (WSN PB2-strep), RdRp subunit of influenza A/WSN/1933(H1N1) (influenza A virus A/WSN/1933(H1N1)) (UniProt P03427). Put plainly: pull-down.

As to “NP (nucleoprotein) of influenza A/WSN/1933(H1N1) (from UniProt P15682 1-498)”, the binding result is “binds”.

The values above are taken from article doi:10.1101/2025.01.08.631631.
